± gives the standard deviation of the averaged measurements. Some of the results follow.
Compound: Nc1nc2c(ncn2[C@@H]2O[C@H](COP(=O)(O)OP(=O)(O)OP(=O)(O)O)[C@@H](O)[C@H]2O)c(=O)[nH]1 [guanosine triphosphate]
Assay: NP40-soluble protein abundance relative to vehicle (solubility fold change) (ratio); higher = more soluble protein in presence of GTP
Summary of the method: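 Each value is a fold change relative to the detergent-processed vehicle, calculated per replicate from vsn-normalised intensities. Jurkat crude lysate received eight concentrations (0.1 to 10 mM) for 10 min at room temperature and 3 min at 37 °C, then was solubilised in 0.8% NP40 with benzonase (60 min, 4 °C). The ultracentrifuged supernatant was TMT-labelled and run by LC-MS/MS in three independent experiments.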

By UniProt entry, the sequences of proteins in these tests, tags left out. Where a name states a change or a piece, a line headed by the entry shows the natural chain unless it says otherwise.
UniProt O75643, whole entry: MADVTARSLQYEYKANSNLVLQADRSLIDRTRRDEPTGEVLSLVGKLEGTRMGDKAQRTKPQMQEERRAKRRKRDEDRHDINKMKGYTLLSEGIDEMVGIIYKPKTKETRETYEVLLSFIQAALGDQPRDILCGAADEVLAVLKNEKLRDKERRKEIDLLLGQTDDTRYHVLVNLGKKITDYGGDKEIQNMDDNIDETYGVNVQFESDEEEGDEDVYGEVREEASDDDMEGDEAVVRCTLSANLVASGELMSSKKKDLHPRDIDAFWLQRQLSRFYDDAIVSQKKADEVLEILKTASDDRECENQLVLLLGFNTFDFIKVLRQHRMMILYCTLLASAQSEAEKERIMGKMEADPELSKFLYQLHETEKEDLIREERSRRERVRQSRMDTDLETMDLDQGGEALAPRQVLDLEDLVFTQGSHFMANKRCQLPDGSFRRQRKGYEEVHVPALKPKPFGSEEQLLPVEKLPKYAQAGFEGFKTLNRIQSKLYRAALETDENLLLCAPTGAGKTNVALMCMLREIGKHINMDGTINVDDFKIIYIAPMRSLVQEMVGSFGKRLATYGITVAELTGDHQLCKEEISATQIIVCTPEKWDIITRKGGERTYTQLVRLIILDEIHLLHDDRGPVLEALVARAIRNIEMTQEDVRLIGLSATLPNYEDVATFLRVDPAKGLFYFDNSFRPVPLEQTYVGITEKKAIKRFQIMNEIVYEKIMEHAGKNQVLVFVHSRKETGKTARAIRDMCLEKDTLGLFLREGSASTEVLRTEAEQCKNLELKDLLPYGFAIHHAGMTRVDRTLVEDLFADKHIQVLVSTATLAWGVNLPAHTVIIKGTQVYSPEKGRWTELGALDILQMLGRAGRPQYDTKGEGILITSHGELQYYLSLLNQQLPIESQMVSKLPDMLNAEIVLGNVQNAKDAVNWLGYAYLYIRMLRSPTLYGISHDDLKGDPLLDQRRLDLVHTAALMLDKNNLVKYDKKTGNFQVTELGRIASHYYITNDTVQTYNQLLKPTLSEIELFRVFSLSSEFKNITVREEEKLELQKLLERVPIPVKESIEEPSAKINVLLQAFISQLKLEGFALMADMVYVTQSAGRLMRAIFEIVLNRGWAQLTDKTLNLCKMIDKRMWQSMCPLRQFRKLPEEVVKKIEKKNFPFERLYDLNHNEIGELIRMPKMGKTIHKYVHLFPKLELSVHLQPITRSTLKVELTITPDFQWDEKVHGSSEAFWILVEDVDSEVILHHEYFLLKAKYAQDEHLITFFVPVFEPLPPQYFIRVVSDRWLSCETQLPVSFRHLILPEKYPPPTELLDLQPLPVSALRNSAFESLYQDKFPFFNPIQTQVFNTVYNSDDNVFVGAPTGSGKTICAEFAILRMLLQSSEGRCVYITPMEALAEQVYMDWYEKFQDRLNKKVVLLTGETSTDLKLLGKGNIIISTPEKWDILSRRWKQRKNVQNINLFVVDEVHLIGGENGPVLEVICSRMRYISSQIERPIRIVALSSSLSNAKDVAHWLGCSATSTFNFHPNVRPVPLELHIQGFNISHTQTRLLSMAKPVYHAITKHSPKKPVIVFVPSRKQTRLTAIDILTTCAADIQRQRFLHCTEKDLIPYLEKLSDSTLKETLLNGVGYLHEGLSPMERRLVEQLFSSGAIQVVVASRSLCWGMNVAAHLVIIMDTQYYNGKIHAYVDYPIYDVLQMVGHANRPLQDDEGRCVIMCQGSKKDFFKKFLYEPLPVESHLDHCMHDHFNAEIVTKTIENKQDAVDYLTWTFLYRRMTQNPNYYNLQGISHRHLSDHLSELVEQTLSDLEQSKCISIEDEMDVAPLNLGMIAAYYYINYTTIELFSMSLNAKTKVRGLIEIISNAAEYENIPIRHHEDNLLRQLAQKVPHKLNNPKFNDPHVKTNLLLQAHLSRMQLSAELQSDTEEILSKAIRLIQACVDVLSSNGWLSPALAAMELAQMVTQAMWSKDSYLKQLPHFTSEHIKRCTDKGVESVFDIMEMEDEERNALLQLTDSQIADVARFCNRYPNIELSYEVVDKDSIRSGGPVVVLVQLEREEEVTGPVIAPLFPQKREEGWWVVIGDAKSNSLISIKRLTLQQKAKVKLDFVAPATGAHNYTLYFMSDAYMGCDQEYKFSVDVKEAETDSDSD
UniProt O95786: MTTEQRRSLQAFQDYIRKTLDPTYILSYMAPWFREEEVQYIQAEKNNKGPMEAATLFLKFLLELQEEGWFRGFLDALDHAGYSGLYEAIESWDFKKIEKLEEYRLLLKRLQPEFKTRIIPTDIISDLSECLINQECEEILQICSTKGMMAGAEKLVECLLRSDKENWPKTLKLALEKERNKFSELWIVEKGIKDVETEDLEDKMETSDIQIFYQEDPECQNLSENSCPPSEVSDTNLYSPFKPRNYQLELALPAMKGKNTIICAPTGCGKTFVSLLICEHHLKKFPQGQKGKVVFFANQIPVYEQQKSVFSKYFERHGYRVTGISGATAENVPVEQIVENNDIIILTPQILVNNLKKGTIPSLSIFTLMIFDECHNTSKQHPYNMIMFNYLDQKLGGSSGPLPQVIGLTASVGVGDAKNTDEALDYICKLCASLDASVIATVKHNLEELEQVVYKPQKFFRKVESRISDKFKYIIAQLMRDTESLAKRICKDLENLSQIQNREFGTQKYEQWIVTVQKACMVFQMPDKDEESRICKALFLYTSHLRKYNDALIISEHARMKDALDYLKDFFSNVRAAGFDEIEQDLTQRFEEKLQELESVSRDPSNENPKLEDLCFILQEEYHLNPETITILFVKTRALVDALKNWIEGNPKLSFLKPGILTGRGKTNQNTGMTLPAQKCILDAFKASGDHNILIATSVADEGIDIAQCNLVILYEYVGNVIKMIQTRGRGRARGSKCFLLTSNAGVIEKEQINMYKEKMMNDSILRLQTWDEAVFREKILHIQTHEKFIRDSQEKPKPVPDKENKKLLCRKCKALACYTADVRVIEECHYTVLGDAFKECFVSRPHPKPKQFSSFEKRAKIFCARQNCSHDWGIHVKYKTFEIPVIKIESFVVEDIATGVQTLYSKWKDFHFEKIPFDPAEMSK
UniProt O95365: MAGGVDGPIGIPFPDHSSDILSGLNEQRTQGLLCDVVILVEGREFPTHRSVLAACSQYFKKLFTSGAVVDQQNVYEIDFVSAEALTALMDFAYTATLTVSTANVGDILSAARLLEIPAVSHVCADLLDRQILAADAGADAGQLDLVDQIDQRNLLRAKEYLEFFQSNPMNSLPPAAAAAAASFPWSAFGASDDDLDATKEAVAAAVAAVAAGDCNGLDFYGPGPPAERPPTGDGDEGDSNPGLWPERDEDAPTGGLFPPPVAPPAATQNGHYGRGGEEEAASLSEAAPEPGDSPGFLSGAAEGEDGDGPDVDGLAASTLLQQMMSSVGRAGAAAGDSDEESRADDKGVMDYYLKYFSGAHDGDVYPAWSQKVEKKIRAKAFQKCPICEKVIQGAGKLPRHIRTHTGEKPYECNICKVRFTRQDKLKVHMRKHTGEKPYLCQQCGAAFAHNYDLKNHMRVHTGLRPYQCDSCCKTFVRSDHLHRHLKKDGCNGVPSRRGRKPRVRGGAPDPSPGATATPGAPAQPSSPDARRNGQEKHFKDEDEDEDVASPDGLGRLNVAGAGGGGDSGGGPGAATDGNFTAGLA
UniProt O95563: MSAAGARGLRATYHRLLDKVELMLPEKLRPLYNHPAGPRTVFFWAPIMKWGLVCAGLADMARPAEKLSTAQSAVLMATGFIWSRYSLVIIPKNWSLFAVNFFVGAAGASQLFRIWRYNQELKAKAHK
UniProt P05198, whole entry: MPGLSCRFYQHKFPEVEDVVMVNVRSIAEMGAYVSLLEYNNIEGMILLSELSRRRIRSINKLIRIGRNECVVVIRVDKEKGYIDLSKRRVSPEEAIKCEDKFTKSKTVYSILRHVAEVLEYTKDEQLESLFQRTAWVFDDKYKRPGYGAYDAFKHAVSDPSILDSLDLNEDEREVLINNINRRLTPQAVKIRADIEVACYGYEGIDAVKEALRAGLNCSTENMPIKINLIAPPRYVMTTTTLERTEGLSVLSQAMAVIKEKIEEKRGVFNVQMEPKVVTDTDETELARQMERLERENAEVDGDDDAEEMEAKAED
UniProt P05114: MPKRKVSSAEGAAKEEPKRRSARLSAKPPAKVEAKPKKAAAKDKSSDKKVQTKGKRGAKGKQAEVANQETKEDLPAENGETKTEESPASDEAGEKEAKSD
UniProt O96028: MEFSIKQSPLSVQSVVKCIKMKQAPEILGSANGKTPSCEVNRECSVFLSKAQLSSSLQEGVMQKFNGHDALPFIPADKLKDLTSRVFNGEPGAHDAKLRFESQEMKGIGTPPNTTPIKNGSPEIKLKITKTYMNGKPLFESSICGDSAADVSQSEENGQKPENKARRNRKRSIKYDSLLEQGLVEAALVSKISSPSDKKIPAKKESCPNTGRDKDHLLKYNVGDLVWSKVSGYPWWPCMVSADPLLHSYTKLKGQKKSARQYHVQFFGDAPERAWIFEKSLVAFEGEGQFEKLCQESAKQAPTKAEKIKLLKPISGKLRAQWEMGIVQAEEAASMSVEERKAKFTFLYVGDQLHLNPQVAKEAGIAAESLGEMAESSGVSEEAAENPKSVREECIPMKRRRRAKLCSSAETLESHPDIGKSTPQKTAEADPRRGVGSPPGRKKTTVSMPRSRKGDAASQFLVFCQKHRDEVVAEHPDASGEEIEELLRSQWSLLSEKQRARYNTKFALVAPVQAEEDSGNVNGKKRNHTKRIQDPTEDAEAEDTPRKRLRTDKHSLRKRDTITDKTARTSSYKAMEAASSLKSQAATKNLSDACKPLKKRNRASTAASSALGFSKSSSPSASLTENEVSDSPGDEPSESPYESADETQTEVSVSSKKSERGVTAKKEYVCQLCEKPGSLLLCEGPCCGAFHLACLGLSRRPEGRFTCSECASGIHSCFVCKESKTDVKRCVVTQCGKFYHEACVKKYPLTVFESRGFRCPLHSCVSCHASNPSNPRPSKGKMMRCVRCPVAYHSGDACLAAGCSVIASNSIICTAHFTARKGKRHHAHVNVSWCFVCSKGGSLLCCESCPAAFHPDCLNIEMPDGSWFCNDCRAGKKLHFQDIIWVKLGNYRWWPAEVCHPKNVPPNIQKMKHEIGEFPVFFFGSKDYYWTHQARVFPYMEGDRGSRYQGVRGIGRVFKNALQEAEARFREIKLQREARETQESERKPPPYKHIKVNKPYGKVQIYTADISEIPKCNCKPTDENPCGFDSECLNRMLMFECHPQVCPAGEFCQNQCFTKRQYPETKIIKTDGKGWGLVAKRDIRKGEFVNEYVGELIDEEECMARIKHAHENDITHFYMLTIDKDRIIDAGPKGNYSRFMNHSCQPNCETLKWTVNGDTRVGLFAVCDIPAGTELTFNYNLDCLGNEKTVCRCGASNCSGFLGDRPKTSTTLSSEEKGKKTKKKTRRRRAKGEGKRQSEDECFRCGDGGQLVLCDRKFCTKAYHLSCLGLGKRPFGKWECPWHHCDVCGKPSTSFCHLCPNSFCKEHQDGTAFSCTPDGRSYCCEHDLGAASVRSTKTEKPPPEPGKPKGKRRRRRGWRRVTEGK
UniProt O75582, whole entry, looked up: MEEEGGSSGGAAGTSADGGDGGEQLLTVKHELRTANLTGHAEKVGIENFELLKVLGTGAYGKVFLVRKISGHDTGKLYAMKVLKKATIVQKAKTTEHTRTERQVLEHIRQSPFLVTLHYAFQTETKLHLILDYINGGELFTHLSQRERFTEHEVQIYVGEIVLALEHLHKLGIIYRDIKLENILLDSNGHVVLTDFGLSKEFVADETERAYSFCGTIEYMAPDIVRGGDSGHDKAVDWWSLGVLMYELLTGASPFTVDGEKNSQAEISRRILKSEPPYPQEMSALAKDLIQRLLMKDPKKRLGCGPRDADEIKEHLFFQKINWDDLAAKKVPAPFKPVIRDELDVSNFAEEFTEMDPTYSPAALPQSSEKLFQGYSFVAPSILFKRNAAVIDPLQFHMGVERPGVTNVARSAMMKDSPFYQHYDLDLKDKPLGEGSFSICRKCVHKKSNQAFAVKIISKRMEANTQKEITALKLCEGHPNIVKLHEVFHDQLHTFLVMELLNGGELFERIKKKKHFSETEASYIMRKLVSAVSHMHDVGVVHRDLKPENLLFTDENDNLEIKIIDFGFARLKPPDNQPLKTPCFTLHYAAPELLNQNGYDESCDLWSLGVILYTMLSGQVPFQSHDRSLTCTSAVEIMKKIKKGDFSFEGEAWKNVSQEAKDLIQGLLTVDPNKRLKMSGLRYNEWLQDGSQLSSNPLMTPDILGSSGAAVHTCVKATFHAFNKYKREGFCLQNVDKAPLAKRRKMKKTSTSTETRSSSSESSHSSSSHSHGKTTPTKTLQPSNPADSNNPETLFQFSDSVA
UniProt O75531: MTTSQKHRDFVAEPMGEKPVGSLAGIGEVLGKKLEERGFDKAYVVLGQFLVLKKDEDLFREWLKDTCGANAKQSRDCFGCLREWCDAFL

Target	NP40-soluble protein abundance (concentration: 0.1mM)	NP40-soluble protein abundance (concentration: 0.5mM)	NP40-soluble protein abundance (concentration: 1mM)	NP40-soluble protein abundance (concentration: 2mM)	NP40-soluble protein abundance (concentration: 4mM)	NP40-soluble protein abundance (concentration: 6mM)	NP40-soluble protein abundance (concentration: 8mM)	NP40-soluble protein abundance (concentration: 10mM)
MTA2 (UniProt O94776)	1.04 ± 0.028	1.1 ± 0.059	1.08 ± 0.074	1.11 ± 0.07	1.1 ± 0.09	1.13 ± 0.11	1.14 ± 0.12	1.1 ± 0.092
SNRNP200 (UniProt O75643)	1.04 ± 0.073	1.14 ± 0.12	1.08 ± 0.12	1.18 ± 0.17	1.25 ± 0.22	1.33 ± 0.23	1.36 ± 0.24	1.37 ± 0.2
UniProt P05771-2	0.994 ± 0.042	0.998 ± 0.026	0.943 ± 0.039	0.92 ± 0.072	0.904 ± 0.074	0.917 ± 0.088	0.912 ± 0.043	0.87 ± 0.077
UniProt O75381 and related entries	0.943 ± 0.066	0.844 ± 0.058	1.1 ± 0.042	1.07 ± 0.027	1.06 ± 0.029	1.04 ± 0.025	0.901 ± 0.086	1.15 ± 0.088
UniProt O75554 and related entries	1.01 ± 0.045	1.07 ± 0.1	1.08 ± 0.083	1.05 ± 0.12	1.04 ± 0.059	1.09 ± 0.12	1.12 ± 0.072	1.06 ± 0.034
UniProt O95786 and related entries	1.1 ± 0.036	1.07 ± 0.049	0.976 ± 0.066	1.04 ± 0.086	0.93 ± 0.075	0.939 ± 0.042	0.903 ± 0.062	0.891 ± 0.053
TOMM40 (UniProt O96008)	1.01 ± 0.045	1.04 ± 0.031	0.953 ± 0.041	0.967 ± 0.018	0.946 ± 0.043	0.936 ± 0.037	0.939 ± 0.077	0.905 ± 0.061
WDHD1 (UniProt O75717)	0.991 ± 0.055	1 ± 0.044	0.968 ± 0.037	0.975 ± 0.038	0.952 ± 0.048	0.961 ± 0.034	0.985 ± 0.056	0.953 ± 0.035
UROD (UniProt P06132)	1.04 ± 0.023	0.98 ± 0.035	0.998 ± 0.042	0.946 ± 0.033	0.98 ± 0.032	0.937 ± 0.029	0.934 ± 0.047	0.92 ± 0.018
DNAJC8 (UniProt O75937)	0.838 ± 0.14	0.801 ± 0.056	1.1 ± 0.17	1.09 ± 0.056	1.08 ± 0.14	1.14 ± 0.12	1.05 ± 0.21	1.3 ± 0.25
ZBTB7A (UniProt O95365)	0.979 ± 0.065	0.999 ± 0.089	1.08 ± 0.14	1.08 ± 0.1	1.06 ± 0.098	1.14 ± 0.091	1.08 ± 0.1	1.21 ± 0.22
UniProt O95551 and related entries	0.98 ± 0.015	0.997 ± 0.026	0.948 ± 0.043	0.935 ± 0.046	0.924 ± 0.053	0.94 ± 0.052	0.899 ± 0.086	0.89 ± 0.079
NUP155 (UniProt O75694)	1.07 ± 0.04	1.03 ± 0.056	0.998 ± 0.022	0.999 ± 0.059	1.03 ± 0.04	0.989 ± 0.051	0.991 ± 0.057	1.01 ± 0.085
UniProt O95563 and related entries	1.07 ± 0.017	1.1 ± 0.065	0.973 ± 0.03	0.922 ± 0.032	0.946 ± 0.053	0.902 ± 0.022	0.91 ± 0.16	0.837 ± 0.12
EIF2S1 (UniProt P05198)	1 ± 0.017	1.03 ± 0.031	0.959 ± 0.026	0.9621 ± 0.0068	0.964 ± 0.022	0.967 ± 0.016	0.944 ± 0.054	0.923 ± 0.048
HMGN1 (UniProt P05114)	1.26 ± 0.29	1.29 ± 0.33	1.39 ± 0.48	1.52 ± 0.48	1.34 ± 0.34	1.83 ± 0.67	1.66 ± 0.36	1.8 ± 0.33
UniProt O96028 and related entries	1.04 ± 0.032	1.06 ± 0.049	1.19 ± 0.027	1.26 ± 0.027	1.44 ± 0.053	1.49 ± 0.047	1.59 ± 0.067	1.69 ± 0.062
FADS2 (UniProt O95864)	1.09 ± 0.093	1.1 ± 0.097	1.02 ± 0.12	1.01 ± 0.13	1.01 ± 0.14	0.95 ± 0.074	0.938 ± 0.11	0.906 ± 0.13
UniProt O94874	0.9794 ± 0.0063	0.9735 ± 0.007	0.939 ± 0.018	0.9783 ± 0.0089	0.995 ± 0.023	1.019 ± 0.0033	1 ± 0.016	1.01 ± 0.031
UniProt O75582 and related entries	1.05 ± 0.079	1.06 ± 0.059	0.965 ± 0.044	0.965 ± 0.068	0.979 ± 0.083	0.965 ± 0.056	0.934 ± 0.031	0.912 ± 0.044
BANF1 (UniProt O75531)	1.42 ± 0.34	2.98 ± 1.1	5.2 ± 3	5.54 ± 3.3	5.21 ± 3.3	5.08 ± 3	4.35 ± 2	5.71 ± 3.2
ATRN (UniProt O75882)	1.03 ± 0.19	1.1 ± 0.11	1 ± 0.14	1.11 ± 0.14	1.02 ± 0.045	1.09 ± 0.17	1.11 ± 0.13	1.13 ± 0.18
UniProt O94822 and related entries	1.16 ± 0.18	1.1 ± 0.071	1.09 ± 0.16	1.17 ± 0.13	1.19 ± 0.22	1.11 ± 0.15	1.19 ± 0.17	1.11 ± 0.25
UniProt O94913 and related entries	0.991 ± 0.054	1.01 ± 0.049	1.04 ± 0.055	1.01 ± 0.078	1.06 ± 0.061	1.06 ± 0.059	1.12 ± 0.064	1.11 ± 0.065
UBXN7 (UniProt O94888)	0.964 ± 0.086	0.958 ± 0.053	0.946 ± 0.12	0.926 ± 0.098	0.91 ± 0.11	0.94 ± 0.11	0.917 ± 0.1	0.946 ± 0.077
TMCC1 (UniProt O94876)	1.08 ± 0.016	1 ± 0.065	0.955 ± 0.037	0.893 ± 0.033	0.981 ± 0.037	0.901 ± 0.042	0.96 ± 0.058	0.876 ± 0.068
FTH1 (UniProt P02794)	1.03 ± 0.11	1.08 ± 0.15	1.21 ± 0.23	1.26 ± 0.21	1.22 ± 0.21	1.27 ± 0.23	1.31 ± 0.23	1.3 ± 0.3
HSPA4L (UniProt O95757)	0.972 ± 0.053	0.975 ± 0.05	0.974 ± 0.048	0.926 ± 0.055	0.926 ± 0.053	0.921 ± 0.057	0.944 ± 0.058	0.931 ± 0.059
UniProt O94966-6|O94966-7	1.05 ± 0.056	1.09 ± 0.058	1.01 ± 0.042	1.01 ± 0.064	1 ± 0.042	1 ± 0.041	0.977 ± 0.043	0.951 ± 0.043
SRP72 (UniProt O76094)	0.958 ± 0.045	0.965 ± 0.029	0.98 ± 0.052	0.988 ± 0.035	1.03 ± 0.031	1.04 ± 0.045	1.05 ± 0.053	1.05 ± 0.064

Single records (already shown). Values in the order: NP40-soluble protein abundance (concentration: 0.1mM)	NP40-soluble protein abundance (concentration: 0.5mM)	NP40-soluble protein abundance (concentration: 1mM)	NP40-soluble protein abundance (concentration: 2mM)	NP40-soluble protein abundance (concentration: 4mM)	NP40-soluble protein abundance (concentration: 6mM)	NP40-soluble protein abundance (concentration: 8mM)	NP40-soluble protein abundance (concentration: 10mM)
UniProt O94822 and related entries is entered as 1.16 ± 0.18	1.1 ± 0.071	1.09 ± 0.16	1.17 ± 0.13	1.19 ± 0.22	1.11 ± 0.15	1.19 ± 0.17	1.11 ± 0.25
BANF1 (UniProt O75531) is entered as 1.42 ± 0.34	2.98 ± 1.1	5.2 ± 3	5.54 ± 3.3	5.21 ± 3.3	5.08 ± 3	4.35 ± 2	5.71 ± 3.2
